From PubChem BioAssay AID504648 (National Center for Advancing Translational Sciences (NCATS), 2011)
In all, about 390,000 compounds went through this assay and about 610 (0.16%) were called active. This list was built around the results that the source calls inconclusive (neither active nor inactive); the mix of calls is not that of the screen. Calls follow the shape of the dose curve; as a rule, active = well fitted inhibition curve with a large enough effect; inconclusive = small, poorly fitted or top-dose-only effect, or effect the other way, or another doubt; inactive = no such curve, though single readings can be large or run the other way. Potencies beside an inconclusive call are fits to weak or partial responses and may not hold up.

Experiment: Nrf2 qHTS screen for inhibitors: counterscreen for cytotoxicity
Conditions: A549 ARE-Fluc cells, CellTiter-Fluor viability, 18-24 h; activity change, negative = cytotoxicity: at 46 µM (top of the series)
How it was run: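 Cytotoxicity counterscreen: CellTiter-Fluor fluorescence was measured in A549 ARE_Fluc cells after 18-24 h of compound exposure in a concentration series. The subsequent BugLite luminescent read reports ARE-luciferase activity.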
% is scaled to controls: 0 for no effect and ±100 for the full control effect; potency is read from the fitted curve at half-maximal effect.

| SMILES | Potency | activity change, negative = cytotoxicity |
| --- | --- | --- |
| Cc1cc(C(=O)Nc2nc(-c3ccccn3)cs2)ccc1[N+](=O)[O-] | inconclusive: 4.61 µM [falling, full curve] | – |
| CCCCn1c(NC(=O)c2ccco2)c(S(=O)(=O)c2ccc(C)cc2)c2nc3ccccc3nc21 | – | inactive: -14.2% |
| O=S(=O)(c1ccc(-c2csc(=Nc3ccc(OC(F)(F)Cl)cc3)n2CCCO)cc1)N1CCCC1 | inconclusive: 32.6 µM [falling, partial curve, poor fit] | – |
| COc1ccc(C#Cc2ccc3c(=O)c4ccccc4n(C)c3c2)cc1 | inconclusive: 32.6 µM [falling, partial curve, poor fit] | – |
| COc1ccc(Cn2c(/C=C/c3ccccc3)nc3ccccc32)cc1 | – | inactive: -8.03% |
| CCOc1ccccc1CNCc1c(C(=O)O)n(Cc2ccc(F)cc2)c2cc(C)ccc12 | active: 18.4 µM | – |
| Cc1cc(N2CCOCC2)nc2ccc(NC(=S)N3CCN(c4ccccc4)CC3)cc12 | inconclusive: 5.8 µM [falling, partial curve, poor fit] | – |
| CC(=O)Oc1ccc2ccccc2c1C(NC(=O)Cc1ccccc1)c1ccc(Cl)cc1 (stereo not drawn) | inconclusive: 20.6 µM [falling, single point] | – |
| O=C(OCC(=O)c1cccs1)c1ccccc1 | – | inactive: -3.28% |
| Cc1ccc(-c2nc3n(n2)Cc2ccccc2-3)cc1 | – | inactive: 0.363% |
| COc1ccc(N2C(=O)/C(=C\c3ccco3)N=C2SCC(=O)NC(C)(C)C)cc1Cl | inconclusive: 25.9 µM [falling, single point] | – |
| COc1cccc(-c2csc(N3CCN(C(=O)Nc4ccc(Cl)cc4)CC3)n2)c1 | inconclusive: 13 µM [falling, partial curve] | – |
| Cc1ccc(C(=O)OCC(=O)Nc2ccccc2N2CCOCC2)cc1 | inconclusive: 9.2 µM [falling, partial curve, poor fit] | – |
| CCOc1ccc(OC(=O)c2c(-c3ccccc3Cl)noc2C)cc1 | – | inactive: 15.1% |
| O=C(O)CCc1nnc2n(Cc3ccc(F)cc3)c(=O)c3ccccc3n12 | inconclusive: 29.1 µM [activator, single point] | – |
| COc1ccccc1N(C1=NCCCS1)S(=O)(=O)c1ccc(C(C)(C)C)cc1 | – | inactive: 9.81% |
| O=C(COC(=O)c1c2c(nc3ccccc13)/C(=C/c1ccco1)CC2)NC1CCCC1 | inconclusive: 9.2 µM [activator, partial curve, poor fit] | – |
| NS(=O)(=O)c1ccc(Nc2nc(-c3ccccc3)cs2)cc1 | inconclusive: 29.1 µM [falling, single point] | – |
| Cc1cccc(NC(=O)c2cc(S(=O)(=O)N3CCOCC3)cn2C)c1C | inconclusive: 23.1 µM [falling, partial curve] | – |
| C=CC[C@@H](CC(=O)N[C@H](CO)Cc1ccccc1)C(=O)N[C@H](COC(=O)[C@@H](CC=C)Cc1ccc(F)cc1)Cc1c[nH]c2ccccc12 | inconclusive: 23.1 µM [falling, single point] | – |
| COc1ccc(CC(=O)NCCc2csc(-c3ccc(C(F)(F)F)cc3)n2)cc1 | – | inactive: 4.98% |
| O=S(=O)(Nc1cc(Sc2ncn[nH]2)c(O)c2ccccc12)c1ccccc1 | inconclusive: 29.1 µM [falling, single point] | – |

| SMILES | Potency | activity change, negative = cytotoxicity |
| --- | --- | --- |
| Cc1c(/C=C(\C#N)C(=O)Nc2cccc(Cl)c2)c2ccccc2n1Cc1ccccc1 | inconclusive: 20.6 µM [falling, partial curve, poor fit] | – |
| CCC(=O)N(CCC(c1ccco1)c1ccccc1OC)Cc1cccs1 (stereo not drawn) | – | inactive: 2.66% |
| O=S(=O)(c1ccc(NC(=S)N/N=C/c2ccc(O)c(O)c2)cc1)N1CCOCC1 | – | inactive: 1.43% |
| Cc1cccc(Nc2nc(C)nc3c2oc2ccccc23)c1 | inconclusive: 5.17 µM [activator, full curve, poor fit] | – |
| CCn1cc(S(=O)(=O)Nc2ncccn2)cn1 | – | inactive: -1.9% |
| O=C(CCN1C(=O)/C(=C/c2ccccc2Cl)SC1=S)NCCCN1CCOCC1 | inconclusive: 25.9 µM [falling, single point] | – |
| O=C(N/N=C/c1cccc(Oc2ccc([N+](=O)[O-])cc2[N+](=O)[O-])c1)c1cncc(Br)c1 | inconclusive: 29.1 µM [falling, single point] | – |
| CC1Oc2ccccc2C=C1/C=N/Nc1ccc(C(=O)O)cc1 (stereo not drawn) | inconclusive: 16.4 µM [falling, partial curve, poor fit] | – |
| O=C(O)c1ccc(N/N=C/c2cccc3nccnc23)cc1 | inconclusive: 13 µM [falling, partial curve, poor fit] | – |
| CCn1c(=O)c([N+](=O)[O-])c(NCc2ccc3c(c2)OCO3)c2ccccc21 | inconclusive: 25.9 µM [activator, partial curve] | – |
| CCCCNC(=O)c1cccc(-n2cnc3cccnc32)c1C | – | inactive: 16.4% |
| CCOc1ccc2nc(N3C(=O)C(O)=C(C(=O)c4ccco4)C3c3ccco3)sc2c1 (stereo not drawn) | inconclusive: 16.4 µM [falling, partial curve, poor fit] | – |
| Cc1ccc(C(=O)NNC(=O)C2CCN(c3ncccn3)CC2)cc1 | – | inactive: 4.9% |
| COc1ccc(Br)c(C(=O)Nc2cc3c(cc2N2CCCC2)n(C)c(=O)c(=O)n3C)c1 | inconclusive: 20.6 µM [falling, single point] | – |
| O=C(c1ccc(Cl)cc1)c1cc([N+](=O)[O-])ccc1N1CCOCC1 | inconclusive: 16.4 µM [falling, partial curve, poor fit] | – |
| O=C(O)c1cc(Cl)nc2ccccc12 | – | inactive: 6.45% |
| COc1ccc(-c2cccc(NC(=O)c3cccs3)c2)nn1 | – | inactive: -5.45% |
| CCOC(=O)c1c(C)[nH]c(C)c1S(=O)(=O)N1CCC(C(=O)N2CCN(c3cccc(C)c3C)CC2)CC1 | – | inactive: -13.4% |
| O=C(CN1c2ccccc2Sc2ccccc21)N/N=C/c1ccc(Cl)cc1 | inconclusive: 14.6 µM [falling, partial curve] | – |
| O=C(Nc1ccccc1C(F)(F)F)C1CCN(C(=O)c2cccs2)CC1 | – | inactive: 3.45% |
| O=C(Nc1ccc(F)cc1)c1ccc(Cn2nc(N3CCN(c4ccccc4)CC3)ccc2=O)o1 | inconclusive: 11.6 µM [falling, partial curve] | – |

In another format: entries from further up
SMILES	Potency	activity change, negative = cytotoxicity
Cc1c(/C=C(\C#N)C(=O)Nc2cccc(Cl)c2)c2ccccc2n1Cc1ccccc1	inconclusive: 20.6 µM [falling, partial curve, poor fit]	–
CCC(=O)N(CCC(c1ccco1)c1ccccc1OC)Cc1cccs1 (stereo not drawn)	–	inactive: 2.66%
O=S(=O)(c1ccc(NC(=S)N/N=C/c2ccc(O)c(O)c2)cc1)N1CCOCC1	–	inactive: 1.43%
Cc1cccc(Nc2nc(C)nc3c2oc2ccccc23)c1	inconclusive: 5.17 µM [activator, full curve, poor fit]	–
CCn1cc(S(=O)(=O)Nc2ncccn2)cn1	–	inactive: -1.9%
O=C(CCN1C(=O)/C(=C/c2ccccc2Cl)SC1=S)NCCCN1CCOCC1	inconclusive: 25.9 µM [falling, single point]	–
O=C(N/N=C/c1cccc(Oc2ccc([N+](=O)[O-])cc2[N+](=O)[O-])c1)c1cncc(Br)c1	inconclusive: 29.1 µM [falling, single point]	–
CC1Oc2ccccc2C=C1/C=N/Nc1ccc(C(=O)O)cc1 (stereo not drawn)	inconclusive: 16.4 µM [falling, partial curve, poor fit]	–
O=C(O)c1ccc(N/N=C/c2cccc3nccnc23)cc1	inconclusive: 13 µM [falling, partial curve, poor fit]	–
CCn1c(=O)c([N+](=O)[O-])c(NCc2ccc3c(c2)OCO3)c2ccccc21	inconclusive: 25.9 µM [activator, partial curve]	–
CCCCNC(=O)c1cccc(-n2cnc3cccnc32)c1C	–	inactive: 16.4%
